According to the supplement of paper PMC10849652:
The list shows a part of the results.

Chains of the proteins cited; added tags and fusions are not shown. Lines headed by an entry give the natural chain unless they say otherwise; changes in a name come on top.
UniProt Q96EU6: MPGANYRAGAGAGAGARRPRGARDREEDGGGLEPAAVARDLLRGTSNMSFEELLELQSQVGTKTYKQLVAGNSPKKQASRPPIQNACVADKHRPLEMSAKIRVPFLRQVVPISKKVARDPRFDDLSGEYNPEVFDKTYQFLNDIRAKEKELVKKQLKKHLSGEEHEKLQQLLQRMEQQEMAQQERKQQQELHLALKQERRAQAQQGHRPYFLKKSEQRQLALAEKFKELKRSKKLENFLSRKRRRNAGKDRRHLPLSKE
UniProt O14521: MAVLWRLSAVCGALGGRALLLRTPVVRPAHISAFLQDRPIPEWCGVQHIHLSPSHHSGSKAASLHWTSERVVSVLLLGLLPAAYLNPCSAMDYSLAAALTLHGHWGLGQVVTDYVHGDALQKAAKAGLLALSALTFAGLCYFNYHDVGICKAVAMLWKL
UniProt Q8WXD2: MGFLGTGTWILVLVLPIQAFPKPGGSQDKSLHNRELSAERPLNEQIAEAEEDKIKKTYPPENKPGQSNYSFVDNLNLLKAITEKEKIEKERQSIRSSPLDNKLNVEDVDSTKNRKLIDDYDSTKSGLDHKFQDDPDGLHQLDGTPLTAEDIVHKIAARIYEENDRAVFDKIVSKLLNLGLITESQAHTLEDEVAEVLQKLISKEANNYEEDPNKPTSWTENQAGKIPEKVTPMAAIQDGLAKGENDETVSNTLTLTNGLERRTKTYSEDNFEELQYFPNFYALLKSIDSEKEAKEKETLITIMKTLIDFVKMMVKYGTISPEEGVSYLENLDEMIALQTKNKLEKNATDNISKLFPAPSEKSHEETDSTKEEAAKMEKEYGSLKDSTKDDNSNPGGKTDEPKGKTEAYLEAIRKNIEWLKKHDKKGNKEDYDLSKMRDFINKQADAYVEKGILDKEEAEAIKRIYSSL
UniProt Q8IZE3: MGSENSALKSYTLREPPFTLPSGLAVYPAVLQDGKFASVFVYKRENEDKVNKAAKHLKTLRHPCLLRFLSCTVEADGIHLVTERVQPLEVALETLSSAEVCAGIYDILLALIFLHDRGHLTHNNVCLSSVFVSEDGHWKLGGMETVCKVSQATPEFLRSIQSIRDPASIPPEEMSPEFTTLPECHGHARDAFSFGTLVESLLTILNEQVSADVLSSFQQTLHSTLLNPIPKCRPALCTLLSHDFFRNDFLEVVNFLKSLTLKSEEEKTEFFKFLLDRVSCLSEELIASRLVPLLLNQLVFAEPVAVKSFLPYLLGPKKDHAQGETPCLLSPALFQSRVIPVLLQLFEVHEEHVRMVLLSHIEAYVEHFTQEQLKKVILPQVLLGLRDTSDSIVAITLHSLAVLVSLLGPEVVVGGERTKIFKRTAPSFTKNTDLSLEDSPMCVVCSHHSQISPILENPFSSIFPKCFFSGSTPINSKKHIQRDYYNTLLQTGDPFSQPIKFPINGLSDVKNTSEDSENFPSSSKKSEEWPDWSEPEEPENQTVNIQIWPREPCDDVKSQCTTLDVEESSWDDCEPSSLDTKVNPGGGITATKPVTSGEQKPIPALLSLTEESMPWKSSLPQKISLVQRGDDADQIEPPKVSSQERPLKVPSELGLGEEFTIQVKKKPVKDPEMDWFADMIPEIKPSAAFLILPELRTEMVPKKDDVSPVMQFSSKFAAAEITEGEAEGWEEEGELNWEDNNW
UniProt O15127: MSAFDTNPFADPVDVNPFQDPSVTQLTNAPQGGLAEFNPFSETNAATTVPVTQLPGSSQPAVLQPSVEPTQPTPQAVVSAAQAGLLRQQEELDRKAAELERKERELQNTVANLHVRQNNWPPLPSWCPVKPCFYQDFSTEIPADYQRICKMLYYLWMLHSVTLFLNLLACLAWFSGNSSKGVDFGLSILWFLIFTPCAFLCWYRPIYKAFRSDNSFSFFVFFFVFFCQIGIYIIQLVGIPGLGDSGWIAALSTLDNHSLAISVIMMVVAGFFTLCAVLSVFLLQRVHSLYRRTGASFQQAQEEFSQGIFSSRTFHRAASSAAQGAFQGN
UniProt Q9NRG7: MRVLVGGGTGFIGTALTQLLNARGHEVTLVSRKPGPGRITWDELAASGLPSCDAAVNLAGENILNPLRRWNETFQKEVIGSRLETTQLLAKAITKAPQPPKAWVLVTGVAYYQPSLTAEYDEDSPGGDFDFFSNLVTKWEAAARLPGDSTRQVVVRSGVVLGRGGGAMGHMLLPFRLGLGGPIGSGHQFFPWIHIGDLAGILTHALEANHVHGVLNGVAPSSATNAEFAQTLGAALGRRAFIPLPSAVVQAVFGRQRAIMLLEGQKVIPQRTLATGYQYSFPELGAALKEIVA
UniProt Q9BY42: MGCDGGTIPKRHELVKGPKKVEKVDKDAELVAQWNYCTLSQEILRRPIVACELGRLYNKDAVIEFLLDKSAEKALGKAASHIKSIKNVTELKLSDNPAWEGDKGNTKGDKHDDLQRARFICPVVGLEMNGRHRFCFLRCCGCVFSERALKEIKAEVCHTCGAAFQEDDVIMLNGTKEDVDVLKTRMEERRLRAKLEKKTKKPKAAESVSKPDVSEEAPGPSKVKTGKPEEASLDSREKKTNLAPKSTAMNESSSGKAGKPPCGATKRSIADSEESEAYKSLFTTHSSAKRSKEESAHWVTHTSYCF
UniProt Q5VUM1: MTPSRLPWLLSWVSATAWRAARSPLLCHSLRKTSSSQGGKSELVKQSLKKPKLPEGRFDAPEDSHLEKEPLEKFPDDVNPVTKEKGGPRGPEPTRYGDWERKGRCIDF
UniProt Q7L4I2: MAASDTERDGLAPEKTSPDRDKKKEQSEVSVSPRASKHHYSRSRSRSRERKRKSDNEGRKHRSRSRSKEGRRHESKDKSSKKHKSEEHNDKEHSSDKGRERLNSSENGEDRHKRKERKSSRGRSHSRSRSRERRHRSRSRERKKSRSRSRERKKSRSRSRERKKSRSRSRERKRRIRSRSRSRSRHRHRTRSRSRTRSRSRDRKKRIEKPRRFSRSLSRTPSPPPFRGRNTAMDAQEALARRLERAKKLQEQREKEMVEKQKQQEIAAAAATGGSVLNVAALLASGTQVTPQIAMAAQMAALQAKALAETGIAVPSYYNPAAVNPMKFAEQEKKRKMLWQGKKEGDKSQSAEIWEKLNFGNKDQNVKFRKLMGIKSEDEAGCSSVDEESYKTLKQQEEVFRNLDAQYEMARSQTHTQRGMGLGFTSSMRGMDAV
UniProt Q8N9R8: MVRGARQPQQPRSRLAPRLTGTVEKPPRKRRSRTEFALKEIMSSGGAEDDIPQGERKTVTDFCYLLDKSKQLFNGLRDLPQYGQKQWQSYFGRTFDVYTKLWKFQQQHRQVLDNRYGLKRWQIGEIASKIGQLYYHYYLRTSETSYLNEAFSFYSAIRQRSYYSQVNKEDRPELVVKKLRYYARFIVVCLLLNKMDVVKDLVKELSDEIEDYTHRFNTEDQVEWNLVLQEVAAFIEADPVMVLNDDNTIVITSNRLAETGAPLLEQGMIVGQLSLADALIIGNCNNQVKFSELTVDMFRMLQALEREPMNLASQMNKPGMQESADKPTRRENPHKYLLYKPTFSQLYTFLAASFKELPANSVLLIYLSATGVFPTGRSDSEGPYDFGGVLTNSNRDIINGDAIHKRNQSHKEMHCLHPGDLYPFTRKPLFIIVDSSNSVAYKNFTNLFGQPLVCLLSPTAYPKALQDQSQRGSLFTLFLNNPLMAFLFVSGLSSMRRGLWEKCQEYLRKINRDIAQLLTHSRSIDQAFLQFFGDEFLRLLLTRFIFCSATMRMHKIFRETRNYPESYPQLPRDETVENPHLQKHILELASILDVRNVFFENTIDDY
UniProt Q01196, whole entry, looked up: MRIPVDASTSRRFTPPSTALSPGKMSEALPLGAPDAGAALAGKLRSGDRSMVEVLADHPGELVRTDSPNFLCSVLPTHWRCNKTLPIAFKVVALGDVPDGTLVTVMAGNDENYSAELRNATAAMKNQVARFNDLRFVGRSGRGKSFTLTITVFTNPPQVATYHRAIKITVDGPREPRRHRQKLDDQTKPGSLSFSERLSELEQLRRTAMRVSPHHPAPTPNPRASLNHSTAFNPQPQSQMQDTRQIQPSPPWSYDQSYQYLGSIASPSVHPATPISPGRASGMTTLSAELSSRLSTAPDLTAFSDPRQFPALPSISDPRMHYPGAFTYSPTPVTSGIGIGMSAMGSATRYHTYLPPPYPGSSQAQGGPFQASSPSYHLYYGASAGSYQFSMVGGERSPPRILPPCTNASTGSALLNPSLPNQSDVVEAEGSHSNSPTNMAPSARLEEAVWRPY
UniProt Q9NTJ5: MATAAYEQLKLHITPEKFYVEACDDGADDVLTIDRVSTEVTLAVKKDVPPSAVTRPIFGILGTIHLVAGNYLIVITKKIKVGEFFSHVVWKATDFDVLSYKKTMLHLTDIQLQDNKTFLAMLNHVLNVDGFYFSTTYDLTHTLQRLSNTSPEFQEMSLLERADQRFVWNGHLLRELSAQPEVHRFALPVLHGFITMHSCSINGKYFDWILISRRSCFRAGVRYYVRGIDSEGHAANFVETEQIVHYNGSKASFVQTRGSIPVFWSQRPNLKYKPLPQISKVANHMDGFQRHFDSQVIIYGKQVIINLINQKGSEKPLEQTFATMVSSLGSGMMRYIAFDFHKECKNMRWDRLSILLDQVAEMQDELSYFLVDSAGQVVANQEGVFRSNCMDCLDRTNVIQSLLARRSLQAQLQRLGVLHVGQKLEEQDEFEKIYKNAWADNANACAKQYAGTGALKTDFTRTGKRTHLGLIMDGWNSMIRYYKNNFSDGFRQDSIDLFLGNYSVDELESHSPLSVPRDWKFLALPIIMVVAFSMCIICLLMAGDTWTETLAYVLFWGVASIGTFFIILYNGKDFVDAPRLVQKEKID
UniProt O75446: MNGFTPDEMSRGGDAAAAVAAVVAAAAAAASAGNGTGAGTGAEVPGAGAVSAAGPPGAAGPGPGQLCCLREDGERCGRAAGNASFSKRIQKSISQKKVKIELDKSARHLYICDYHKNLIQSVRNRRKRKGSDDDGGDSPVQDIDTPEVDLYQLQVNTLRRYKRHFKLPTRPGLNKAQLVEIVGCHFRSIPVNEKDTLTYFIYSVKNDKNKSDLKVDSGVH
UniProt O95104: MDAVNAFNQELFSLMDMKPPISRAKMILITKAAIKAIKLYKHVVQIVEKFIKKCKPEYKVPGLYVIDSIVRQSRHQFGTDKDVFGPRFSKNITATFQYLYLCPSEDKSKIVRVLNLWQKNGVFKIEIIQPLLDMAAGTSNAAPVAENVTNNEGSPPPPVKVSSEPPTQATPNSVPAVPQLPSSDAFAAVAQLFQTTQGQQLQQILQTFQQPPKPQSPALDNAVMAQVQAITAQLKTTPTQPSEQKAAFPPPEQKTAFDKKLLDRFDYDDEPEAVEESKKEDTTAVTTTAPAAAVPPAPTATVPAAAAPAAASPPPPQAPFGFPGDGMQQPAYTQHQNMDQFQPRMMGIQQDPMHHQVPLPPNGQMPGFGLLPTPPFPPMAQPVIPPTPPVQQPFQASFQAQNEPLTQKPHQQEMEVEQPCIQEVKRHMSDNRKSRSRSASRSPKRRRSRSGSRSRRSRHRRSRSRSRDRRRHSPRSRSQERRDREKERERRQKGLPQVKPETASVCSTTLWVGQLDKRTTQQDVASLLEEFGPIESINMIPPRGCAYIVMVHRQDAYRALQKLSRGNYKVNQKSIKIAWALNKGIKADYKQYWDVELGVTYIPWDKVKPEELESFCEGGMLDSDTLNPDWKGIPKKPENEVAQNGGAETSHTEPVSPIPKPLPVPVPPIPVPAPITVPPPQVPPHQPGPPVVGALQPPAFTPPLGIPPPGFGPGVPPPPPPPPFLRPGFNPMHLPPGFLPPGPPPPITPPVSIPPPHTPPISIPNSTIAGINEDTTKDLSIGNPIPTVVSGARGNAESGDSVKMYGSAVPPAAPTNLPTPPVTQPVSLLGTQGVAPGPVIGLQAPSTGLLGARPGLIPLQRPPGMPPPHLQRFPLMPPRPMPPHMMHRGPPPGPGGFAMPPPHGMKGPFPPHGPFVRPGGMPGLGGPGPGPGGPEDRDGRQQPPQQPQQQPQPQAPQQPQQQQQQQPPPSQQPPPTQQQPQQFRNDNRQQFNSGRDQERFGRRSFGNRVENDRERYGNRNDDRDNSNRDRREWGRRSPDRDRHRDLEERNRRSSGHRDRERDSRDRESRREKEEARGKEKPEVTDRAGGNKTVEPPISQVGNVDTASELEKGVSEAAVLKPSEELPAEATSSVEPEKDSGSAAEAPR
UniProt O75845: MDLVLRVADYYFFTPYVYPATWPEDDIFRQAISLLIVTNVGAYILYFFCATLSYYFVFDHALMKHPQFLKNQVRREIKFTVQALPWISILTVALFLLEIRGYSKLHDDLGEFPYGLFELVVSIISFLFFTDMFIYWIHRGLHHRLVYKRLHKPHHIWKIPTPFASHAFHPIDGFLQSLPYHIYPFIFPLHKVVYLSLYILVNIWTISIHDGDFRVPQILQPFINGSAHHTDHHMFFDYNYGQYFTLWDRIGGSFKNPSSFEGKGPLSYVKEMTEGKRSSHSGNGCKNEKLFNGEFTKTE
UniProt Q9NX18: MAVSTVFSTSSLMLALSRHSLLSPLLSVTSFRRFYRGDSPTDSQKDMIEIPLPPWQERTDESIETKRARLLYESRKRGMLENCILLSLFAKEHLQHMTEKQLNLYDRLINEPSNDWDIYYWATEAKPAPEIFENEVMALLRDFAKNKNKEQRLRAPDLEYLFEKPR

compound: C/C(=N\NC(=O)C1=CC(=CC=C1)S(=O)(=O)N2CCOCC2)/C3=C(C=CC(=C3)Cl)O; test: log2 fold change, soluble protein after heating vs DMSO (PISA); higher = thermal stabilisation; K562 cells, 10 uM, 30 min; active = over 0.2 and 3.5 SD of the protein, either way, in both replicates (recomputed)
Summary of the method: (§1)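 K562 cells (2×10^6 cells/mL) were treated with 10 μM compound for 30 min, and aliquots were heated for 3 min over 48°C-58°C. Pooled aliquots were extracted in PBS with 0.5% NP-40 at 4°C, and the supernatant after 21,000xg for 90 min was measured by TMTpro 16plex LC-MS/MS with channel sums equalised. Reported thermal stability, relative to control samples and from duplicates, is a log2 fold change.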

| Target | log2 fold change |
| --- | --- |
| RRP36 (UniProt Q96EU6) | inactive: -0.147 |
| SCAMP2 (UniProt H3BUB6) | inactive: -0.331 |
| SDHD (UniProt O14521) | inactive: 0.006 |
| SCG3 (UniProt Q8WXD2) | inactive: 0.141 |
| SCYL3 isoform 2 (UniProt Q8IZE3) | inactive: 0.055 |
| SCAMP2 (UniProt O15127) | inactive: 0.141 |
| SDHB, A0A087WXX8 | inactive: -0.148 |
| SDR39U1 (UniProt Q9NRG7) | inactive: 0.127 |
| RTF2 (UniProt Q9BY42) | inactive: 0.063 |
| SDCCAG8 (UniProt Q86SQ7) | inactive: -0.082 |
| SDHAF4 (UniProt Q5VUM1) | inactive: 0.104 |
| RSRC2 (UniProt Q7L4I2) | inactive: -0.01 |
| SCAI isoform 2 (UniProt Q8N9R8) | inactive: 0.034 |
| SCGB1D2 (UniProt O95969) | inactive: -0.335 |
| RUNX1 isoform 8 (UniProt Q01196) | inactive: 0.081 |
| SEC22A (UniProt Q96IW7) | inactive: 0.029 |

| Target | log2 fold change |
| --- | --- |
| S100A4 (UniProt P26447) | inactive: -0.137 |
| SACM1L (UniProt Q9NTJ5) | inactive: 0.1 |
| RSF1 (UniProt Q96T23) | inactive: 0.152 |
| SAP30 (UniProt O75446) | inactive: 0.061 |
| SDHB, A0A087WWT1 | inactive: -0.069 |
| S100A2 (UniProt P29034) | inactive: -0.465 |
| RWDD2B (UniProt P57060) | inactive: 0.091 |
| SCAF4 (UniProt O95104) | inactive: -0.012 |
| RSPRY1 (UniProt Q96DX4) | inactive: 0.079 |
| S100A14 (UniProt Q9HCY8) | inactive: -0.164 |
| SC5D (UniProt O75845) | inactive: 0.026 |
| RSL24D1 (UniProt Q9UHA3) | inactive: -0.272 |
| SDHAF2 (UniProt Q9NX18) | active: 0.304 |
| RUFY3 isoform 3 (UniProt Q7L099) | inactive: 0.012 |
| RTN4 isoform 5 (UniProt Q9NQC3) | inactive: -0.023 |

compound: C1=CC(=C(C=C1Cl)C2=NC3=NC=CN=C3C(=N2)NC4=CC=NC=C4)F; test: as above
Summary of the method: as §1

| Target | log2 fold change |
| --- | --- |
| RRP36 (UniProt Q96EU6) | inactive: -0.586 |
| SCAMP2 (UniProt H3BUB6) | inactive: -0.143 |
| SDHD (UniProt O14521) | inactive: 0.149 |
| SCG3 (UniProt Q8WXD2) | inactive: 0.023 |
| SCYL3 isoform 2 (UniProt Q8IZE3) | inactive: 0.07 |
| SCAMP2 (UniProt O15127) | inactive: 0.081 |
| SDR39U1 (UniProt Q9NRG7) | inactive: 0.376 |
| RTF2 (UniProt Q9BY42) | inactive: 0.035 |
| SDHAF4 (UniProt Q5VUM1) | inactive: 0.026 |
| RSRC2 (UniProt Q7L4I2) | inactive: -0.009 |
| SCAI isoform 2 (UniProt Q8N9R8) | inactive: -0.076 |
| SCGB1D2 (UniProt O95969) | inactive: -0.078 |
| RUNX1 isoform 8 (UniProt Q01196) | inactive: -0.03 |
| SACM1L (UniProt Q9NTJ5) | inactive: 0.109 |
| RSF1 (UniProt Q96T23) | inactive: 0.031 |
| SAMD4B (UniProt Q5PRF9) | inactive: -0.17 |
| SAP30 (UniProt O75446) | inactive: -0.069 |
| SDHB, A0A087WWT1 | inactive: 0.019 |
| SCAF4 (UniProt O95104) | inactive: 0.052 |
| RSPRY1 (UniProt Q96DX4) | inactive: 0.016 |
| SC5D (UniProt O75845) | inactive: 0.013 |
| RSL24D1 (UniProt Q9UHA3) | inactive: -0.778 |
| SDHAF2 (UniProt Q9NX18) | inactive: 0.083 |
| RTN4 isoform 5 (UniProt Q9NQC3) | inactive: -0.049 |

compound: C1=CC(=CC=C1C2=NC3=C(N2)C=C(C=C3)C(=O)N)OC4=CC=C(C=C4)Cl; test: as above
Summary of the method: as §1

| Target | log2 fold change |
| --- | --- |
| RRP36 (UniProt Q96EU6) | inactive: -0.005 |
| SCAMP2 (UniProt H3BUB6) | inactive: 0.039 |
| SDHD (UniProt O14521) | inactive: 0.337 |
| SCG3 (UniProt Q8WXD2) | inactive: 0.088 |
| SCYL3 isoform 2 (UniProt Q8IZE3) | inactive: -0.05 |
| SCAMP2 (UniProt O15127) | inactive: 0.011 |
| SDHB, A0A087WXX8 | inactive: -0.103 |
| SDR39U1 (UniProt Q9NRG7) | inactive: 0.172 |
| RTF2 (UniProt Q9BY42) | inactive: -0.049 |
| SDCCAG8 (UniProt Q86SQ7) | inactive: 0.005 |
| SDHAF4 (UniProt Q5VUM1) | inactive: 0.031 |
| RSRC2 (UniProt Q7L4I2) | inactive: -0.012 |
| SCAI isoform 2 (UniProt Q8N9R8) | inactive: 0.148 |
| SCGB1D2 (UniProt O95969) | inactive: -0.49 |
| RUNX1 isoform 8 (UniProt Q01196) | inactive: 0.048 |
| SEC22A (UniProt Q96IW7) | inactive: -0.083 |

| Target | log2 fold change |
| --- | --- |
| S100A4 (UniProt P26447) | inactive: 0.084 |
| SACM1L (UniProt Q9NTJ5) | inactive: -0.061 |
| RSF1 (UniProt Q96T23) | inactive: 0.126 |
| SAMD4B (UniProt Q5PRF9) | inactive: -0.13 |
| SAP30 (UniProt O75446) | inactive: -0.027 |
| SDHB, A0A087WWT1 | inactive: -0.096 |
| S100A2 (UniProt P29034) | inactive: -0.651 |
| RWDD2B (UniProt P57060) | inactive: 0.085 |
| SCAF4 (UniProt O95104) | inactive: 0.001 |
| RSPRY1 (UniProt Q96DX4) | inactive: 0.041 |
| S100A14 (UniProt Q9HCY8) | inactive: -0.892 |
| SC5D (UniProt O75845) | inactive: 0.069 |
| RSL24D1 (UniProt Q9UHA3) | inactive: -0.355 |
| SDHAF2 (UniProt Q9NX18) | inactive: 0.018 |
| RUFY3 isoform 3 (UniProt Q7L099) | inactive: -0.03 |
| RTN4 isoform 5 (UniProt Q9NQC3) | inactive: 0.041 |
